Source: publication PMC6345044
Results are given in words; binding and its absence hold for the method and conditions named. Binding seen in cells or lysates may run through a third protein. Some entries that bind do so weakly or less than the wild type.

The chains behind the UniProt entries cited, without tags or fusion partners. Residues count along the entry.
UniProt Q15118, residues 29-436: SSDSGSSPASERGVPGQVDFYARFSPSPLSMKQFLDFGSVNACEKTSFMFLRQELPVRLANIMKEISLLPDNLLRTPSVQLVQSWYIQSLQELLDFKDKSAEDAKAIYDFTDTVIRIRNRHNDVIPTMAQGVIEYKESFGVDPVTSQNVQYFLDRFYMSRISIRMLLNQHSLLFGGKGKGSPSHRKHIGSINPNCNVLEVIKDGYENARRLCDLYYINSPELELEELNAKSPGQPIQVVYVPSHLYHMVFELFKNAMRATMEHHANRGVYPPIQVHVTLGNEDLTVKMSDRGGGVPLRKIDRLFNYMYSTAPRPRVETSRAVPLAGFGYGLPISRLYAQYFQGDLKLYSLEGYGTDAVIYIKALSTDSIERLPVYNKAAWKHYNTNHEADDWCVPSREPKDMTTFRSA

Target: T1, pyruvate dehydrogenase E1α (human (endogenous in MCF-7)) (UniProt P08559)
T1 sequence: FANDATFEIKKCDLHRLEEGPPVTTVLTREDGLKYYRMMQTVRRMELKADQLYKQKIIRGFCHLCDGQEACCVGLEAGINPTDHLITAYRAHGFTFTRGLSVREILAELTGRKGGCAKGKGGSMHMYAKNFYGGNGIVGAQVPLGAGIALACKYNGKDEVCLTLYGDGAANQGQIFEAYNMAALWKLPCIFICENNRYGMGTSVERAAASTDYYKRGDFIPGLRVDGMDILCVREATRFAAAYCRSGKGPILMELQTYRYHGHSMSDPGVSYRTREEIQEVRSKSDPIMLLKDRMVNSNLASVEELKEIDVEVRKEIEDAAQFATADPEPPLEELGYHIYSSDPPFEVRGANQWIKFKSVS
Assay: co-IP; endogenous PDH E1α immunoprecipitated from lysates of control and TPD54 stably knocked down MCF-7 cells (2 ug PDH E1α antibody overnight at 4 °C, protein A agarose); immunoblot for PDK1

binding: binds
Substance: pyruvate dehydrogenase kinase 1 (from UniProt Q15118 29-436) (enzyme)
